Results published in patent publication US9023998B2, “Near infrared fluorogen and fluorescent activating proteins for in vivo imaging and live-cell biosensing” (Carnegie Mellon University, priority 2013, dated 2015).

System: HCT116 cells transduced by the dL9.2-delivering lentivirus
Assay: Fluorescence detection of FAP-expressing cells in the intraperitoneal cavity after i.v. fluorogen
Format: in vivo, nude mice
Conditions: 7×10^6 cells i.p.; fluorogen i.v. 100 μL of 4.0 μM; imaged after 20 hours

CN(C)c1ccc(/C=C/C(=C2C=CC(=[N+](C)C)C=C2)c2ccc(N(C)C)cc2)cc1 [SKC602, (E)-N-(4-(1,3-bis(4-(dimethylamino)phenyl)allylidene)cyclohexa-2,5-dien-1-ylidene)-N-methylmethanaminium]
Labeling of intraperitoneally injected FAP-expressing cells after intravenous fluorogen: can propagate through the body, activating at sites of interest
